Data source: PubChem BioAssay AID504808 (Drosophila RNAi Screening Center, 2011)
In all, the deposit lists about 21,000 reagents; below is an unselected part of those that have a named target and a result. In the full data, 18 (0.084%) are marked active. 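Raw counts without plate normalisation, one of two replicates; the ratio scores behind the calls were not deposited.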 The numbers tell different reagents against one gene apart. A plus sign joins genes that one reagent is predicted to hit. Not given: the amount of reagent, the time to read-out.

Assay: 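Fly genes required to hold E2F transcription in check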 (primary screen)
Cells: Drosophila S2 cells
Reagent: long dsRNA against Drosophila genes
Detection: 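Firefly luciferase driven by E2F sites, normalised to Renilla luciferase on the same minimal promoter, measured by plate reader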
Reading the numbers: E2F firefly: higher = more E2F reporter activity; Renilla normaliser: higher = more normaliser reporter signal
Active means: 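a knock-down counted as active when the firefly/Renilla E2F signal rose above 50%, a threshold chosen arbitrarily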

no.	target	reagent	E2F firefly, rep 1	Renilla normaliser, rep 1	activity call
1	lncRNA:CR42862 (long non-coding RNA:CR42862)	1	69684	3578	inactive
2	CG7246	1	48624	3644	inactive
3	bru1 (bruno 1)	1	71045	3812	inactive
4	bru1 (bruno 1)	2	1.04e5	4724	inactive
5	bru1 (bruno 1)	3	1.46e5	7550	inactive
6	bru1 (bruno 1)	4	1.31e5	6428	inactive
7	bru1 (bruno 1)	5	65200	3365	inactive
8	rasp	1	90207	3843	inactive
9	CG11584	1	1.58e5	6262	inactive
10	Ent3 (Equilibrative nucleoside transporter 3)	1	69825	3172	inactive
11	Polr3A (RNA polymerase III subunit A)	1	2.46e5	5771	inactive
12	kirre (kin of irre)	1	1.19e5	6693	inactive
13	CG11279	1	1.27e5	7161	inactive
14	CG12091	1	1.16e5	4744	inactive
15	Or23a (Odorant receptor 23a)	1	1.74e5	6042	inactive
16	plum	1	1807	848	inactive
17	CG5254	1	1.31e5	5242	inactive
18	CG34309	1	1.25e5	5705	inactive
19	His2Av (Histone H2A variant)	1	1739	872	inactive
20	Cpr78E (Cuticular protein 78E)	1	1.41e5	6766	inactive
21	CG6136	1	77877	3384	inactive
22	CG8490	1	151	36	inactive
23	wkd (whacked)	1	1.39e5	7165	inactive
24	CG9410 + CG15908	1	1.01e5	3959	inactive
25	CG9410 + CG15908	2	1.07e5	3833	inactive
26	Ance-2	1	1.00e5	4626	inactive

Looked up above.
CG11279, Renilla normaliser, rep 1 → 7161
CG9410 + CG15908 #2, Renilla normaliser, rep 1 → 3833
Result for Cpr78E (Cuticular protein 78E) in “E2F firefly, rep 1”: 1.41e5
Value of kirre (kin of irre) in “E2F firefly, rep 1”: 1.19e5
Under “E2F firefly, rep 1”, bru1 (bruno 1) #2 reads 1.04e5
Entry of CG7246 in “activity call”: inactive

The results go on.
no.	target	reagent	E2F firefly, rep 1	Renilla normaliser, rep 1	activity call
27	cpo (couch potato)	1	79170	2194	inactive
28	Rcd-1r + CG13102	1	1.47e5	4864	inactive
29	CG6059	1	1804	996	inactive
30	Snx6 (Sorting nexin 6)	1	87801	3904	inactive
31	CG5339	1	80596	3583	inactive
32	His4r (Histone H4 replacement)	1	57597	25922	inactive
33	CG8460	1	85090	3348	inactive
34	msk (moleskin)	1	84900	4233	inactive
35	CG13614	1	96843	6616	inactive
36	fau	1	80101	3535	inactive
37	fau	2	83221	3753	inactive
38	fau	3	75512	3608	inactive
39	fau	4	1.30e5	7588	inactive
40	fau	5	1.44e5	7161	inactive
41	CG18754	1	88996	5238	inactive
42	CG13643	1	1.07e5	5562	inactive
43	CG13643	2	1.10e5	6029	inactive
44	Nepl4 (Neprilysin-like 4)	1	87691	3557	inactive
45	CG14069	1	1.35e5	4974	inactive
46	CG42552 (retired record)	1	89976	3944	inactive
47	CR31700 (pseudo)	1	1.26e5	5047	inactive
48	Trxr2 (Thioredoxin reductase 2)	1	1.18e5	5921	inactive
49	laf (labial associated factor)	1	1.14e5	5366	inactive
50	Nup75 (Nucleoporin 75kD)	1	66127	3187	inactive
51	CG6659	1	1.74e5	5283	inactive
52	CG7650	1	1.58e5	7884	inactive
53	CR10032 (pseudo)	1	1.33e5	6198	inactive
54	SmE (Small ribonucleoprotein particle protein SmE)	1	93773	4661	inactive
55	ChLD3 (Chitin and LDLR binding deacetylase 3)	1	1.07e5	4425	inactive
56	Gen (XPG-like endonuclease)	1	74211	3294	inactive
57	mago (mago nashi)	1	99465	3984	inactive
